Reference: US5700640A, “Inducers of gamma globin gene expression and screening assays therefor” (priority 1994, dated 1997)

What was measured:
gamma globin mRNA = assay: Northern hybridization of gamma globin mRNA in treated K562 cells; type: cell-based; details: Homo sapiens, K562, 96 h, read-out: Fold Induction, gamma globin RNA
Description: (§1) Total RNA was prepared by the method of McDonald as described in Sambrook et al., (1989) Molecular Cloning: A Laboratory Manual, 2nd Edition, Cold Spring Harbor Laboratory Press. 10 μg total cellular RNA was electrophoresed through agarose gels containing 3.3% formaldehyde. The electrophoresed RNA was then transferred to nitrocellulose filters by standard methods. Each sample was hybridized to specific probes for gamma globin mRNA, mRNA encoding the erythroid specific transcription factor GATA-1 and 28S ribosomal RNA (which was used for standardization). The gamma globin and GATA-1 probes were cDNA probes, which were labeled with ^32 p by random priming reactions (Promega Biotech Inc.). The 28S ribosomal RNA probe was an oligonucleotide having the sequence 5' […] 3' (SEQ ID NO: 3), which was labeled by 5' end labeling using T4 polynucleotide kinase (New England Biolabs). Nucleotide probes were hybridized to the RNA nitrocellulose filters according to standard techniques. After hybridization, radioactive signals on the nitrocellulose filters were directly quantified using a BioRad GS-250 Molecular Imager. mRNA hybridization intensities were normalized to the amount of 28S ribosomal RNA present for each sample.

[1] = tested on: gamma globin gene expression (gamma3'PE reporter) in K562 cells; assay: gamma globin promoter-luciferase reporter assay in stably transfected gamma3'PE K562 cells; details: 5 mM, normalized to fold induction by BA
Description: The gamma globin 5' promoter and 3' enhancer fragments, alone or in combination with each other or another fragment, were inserted into restriction endonuclease sites flanking the coding sequences of the luciferase gene in pGL2 using standard recombinant DNA techniques (pGL2 was obtained commercially from Promega Biotech). Constructs were prepared which contained: 1) the gamma globin promoter alone upstream of the luciferase gene (gamma); 2) the gamma globin promoter upstream of the luciferase gene and the gamma globin 3' enhancer downstream of the luciferase gene (gamma3'PE); 3) the gamma globin promoter upstream of the luciferase gene and the SV40 enhancer downstream of the luciferase gene (gammaSV40); 4) the beta globin promoter upstream of the luciferase gene and the gamma globin 3' enhancer downstream of the luciferase gene Coeta3'PE); and 5) hypersensitive sites 2 and 3 G-IS2 and HS3) of the 5' globin enhancer upstream of the gamma globin promoter upstream of the luciferase gene and the gamma globin 3' enhancer downstream of the luciferase gene (HS2/3gamma3'PE). These constructs are illustrated schematically in FIG. 2. […]
K562 host cells carrying gamma globin-reporter gene constructs were used to lo screen compounds for their ability to induce globin gene expression, as measured by increased reporter gene activity in the host cells upon treatment with the compound. […]

K562 cells = tested on: K562 cells
Description: To normalize luciferase units to the number of viable cells, parallel cell viability assays were performed using 3-(4,5-dimethylthiazol-2-yl)-2,5-diphenyltetrazolium bromide (MTT) (Vistica, D. T. et al. (1991) Cancer Res. 51:2515-2520). Transfected K562 cells were plated in 96 well dishes at a density of 2×10^4 and 2×10^3 cells per 100 μl per well. 24 hours later, the cells were treated with test compounds (at a final concentration of 5 mM). At 24, 50, 74 or 122 hours after treatment, 50 μl of 3 mg/ml MTT in PBS was added to each well. The 96 well plate was then incubated at 37° C. for 4 to 5 hours. The formazan derivatives formed from tetrazolium by viable cells were solubilized by the addition of 50 μl/well 25% SDS, pH 3, overnight at 37° C. The plates were than read at a wavelength of 550 nm.

GATA-1 mRNA = assay: Northern hybridization of GATA-1 mRNA in treated K562 cells; type: cell-based; details: Homo sapiens, K562, 96 h, read-out: Fold Induction, GATA-1 RNA
Description: as §1

`CC(C)CC(=O)O` [IVA, isovaleric acid] was tested, and the fold induction at 5000 µM (gamma globin mRNA) was 7, the “induction relative to BA at 74 hr (FIG. 4)” value ([1]; 74 hr) was “marginally better inducers than BA at 74 hr” and the “induction relative to BA at 122 hr (FIG. 4)” value ([1]; 122 hr) was “significantly better inducers than BA at 122 hr post induction”. For the same compound, the “cell viability relative to untreated cells (FIG. 7)” value (K562 cells) was “equivalent to that of untreated cells” and the fold induction at 5000 µM (GATA-1 mRNA) was 23.
